According to patent publication US6664368B1, “Inhibition of nuclear import by backbone cyclic peptide analogs” (priority 1997, dated 2003):
pIC50: −log10 of the molar value. “Also recorded” adds a separate entry of the source. Not every detail of the peptide structures is certain; ends, links or a residue may be inferred. At least one structure is not confirmed: it was looked up by name or label, or the drawing left a doubt. Numbered stars: 1 amine (or outer) side, 2 acyl side, 3 side chain; on linkers, the order of the positions; unused ones are H or OH. Bridge positions count the residues as written; N and C are the ends. Square brackets hold non-standard residues; d marks the D form. Peptide text beside a SMILES is read from it. N(6-aminohexyl)Gly = O=C(CN(CCCCCCN[*:3])[*:1])[*:2]; X1 = CC(C)[C@H](NC(=O)CCCCC(=O)[*:1])C(=O)[*:2]

Columns and labels:
Format in all cases: cell-based
[1] = test system: translocation of FL-NLS-BSA into nuclei of digitonin-permeabilized HeLa cells; assay: Nuclear import estimated by fluorescence microscopy; settings: BCvir: transport substrate 2:1 (w/w)
Text: HeLa cells were cultivated on 10 mm coverslips to subconfluent density and then permeabilized with digitonin as described before (Broder, et al. ibid). Linear peptides bearing the NLS signal of the SV40 large T-antigen were covalently attached to fluorescently labeled (with FITC) BSA molecules (Goldfarb, et al. (1986) Nature 322, 641-644) and translocation of the resulting fluorescently labeled-NLS-BSA molecules (FL-NLS-BSA) into nuclei of digitonin-permeabilized HeLa cells was followed by fluorescent microscopy observations, as described (Broder, et al. ibid).

[2] = test system: HIV-1IIIB in Hut 78 cells; assay: Inhibition of HIV-1 production (p24-CA antigen release)
[3] = test system: nuclear import of SV40-NLS-BSA (biotinylated BSA-NLS); assay: Quantitative ELISA-based nuclear import assay, inhibition of NLS-BSA (SV40-NLS-BSA) uptake in permeabilized Colo-205 cells
Procedure: Nuclear import was quantitatively determined essentially as described before (Melchior, et al. (1993) J. Cell. Biol. 123 (6). 1649-1659), except that a suspension of Colo-205 cells was used instead of a suspension of HeLa cells and 500 nM biotinylated BSA-NLS were used as a transport substrate. The immunomodule strips were coated with rabbit anti-BSA serum instead of using the IgG fraction. The results given are an average of triplicate determination whose standard deviation never exceeded ±20%.
Nuclear uptake was determined by the ELISA-based assay, except where indicated. IC50 values were determined by using peptides and transport substrates in molar ratios between 500:1 and 0.005:1 respectively. Cysteine residues in all the peptides are not part of the original sequence and were added in order to conjugate them to BSA.
Inhibition of nuclear uptake was estimated by addition of the above listed peptides to a nuclear transport system using SV40-NLS-BSA as a transport substrate.
Nuclear transport using SV40-NLS-BSA and Tat-NLS-BSA as transport substrates was performed employing the in-vitro ELISA system.

[4] = purified peptides, inhibition of nuclear import of NLS-BSA

| Structure (SMILES) | inhibition of translocation of FL-NLS-BSA into nuclei [1] | reduction of virus production ([2]; 100 μg/ml, 9 days post infection, aphidicholine cell-cycle arrested non-dividing Hut 78 cells) | effect on virus production in dividing cells ([2]; 100 μg/ml, aphidicholine-untreated dividing Hut 78 cells) | effect on virus production in non-dividing cells ([2]; cell-cycle arrested Hut 78 cells) | Inhibition of nuclear import by the free peptide ([3]; SV40-NLS-BSA as transport substrate) | pIC50 ([3]; purified BCvir) | pIC50 [3, 4] |
| --- | --- | --- | --- | --- | --- | --- | --- |
| CC(C)C[C@H](NC(=O)[C@H](CCCCN)NC(=O)CN1CCCCCCNC(=O)[C@H](C(C)C)NC(=O)CCCCC(=O)N[C@@H](CCCCN)C(=O)N[C@@H](CCCCN)C(=O)N[C@@H](CCCCN)C1=O)C(N)=O [BCvir] (KKK[N(6-aminohexyl)Gly]KL-NH2; linker N-4 via X1) | inhibits; also recorded: completely abolished nuclear import | 75% | No inhibition; also recorded: did not affect virus production | Inhibition of HIV-1 growth | + | 7.46 | 7.40 |
| NCCCC[C@H](NC(=O)CN1CCCCCCNC(=O)CNC(=O)CCCCC(=O)N[C@@H](CCCCN)C(=O)N[C@@H](CCCCN)C(=O)N[C@@H](CCCCN)C1=O)C(N)=O [peptide 19.4] | – | – | – | – | – | – | 3.82 |
